Assay results published in PMC9598724.

Biological target: human β-tubulin (human)
Test: ELISA; solid-phase binding assay: 50 ng human β-tubulin or α-tubulin coated on ELISA plates in carbonate-bicarbonate buffer pH 9.5, blocked with 3% BSA; rOlyA, mutants or OlyA6-mCherry added in TBS, 1 h at 37 °C; rabbit anti-rOlyA and goat anti-rabbit IgG-HRP, OD 450 nm; both purified

B1: rOlyA point mutant W96A (protein, UniProt P83467 1-138)
chain: MAYAQWVIIIIHNVGSQDVKIKNLKASWGKLHADGDKDAEVSASNYEGKIIKPDEKLQINACGRSDAAEGTTGTFDLVDPADGDKQVRHFYWDCPAGSKTNTWTVSGSNTKWMIEYSGQNLDSGALGTITVDTLKKGN
  binding: binds

These are yes or no findings as the source states them, for the method shown. A result given as binding can be weak or reduced; the word gives no strength.
